From patent US20250333486A1, “Anti-HSP90 alpha antibody and uses thereof” (NATIONAL HEALTH RESEARCH INSTITUTES, priority 2021, published 2025)

System: HSP90α
Test: Epitope determination by ELISA (domain, peptide and alanine scanning)
Format: binding, human
Conditions: for epitope sites of HSP90α (peptide scanning): 10-a.a. peptides of a.a. 21-272, ELISA; for a.a. residues critical for binding (alanine scanning): alanine-substituted 10-a.a. peptides, ELISA
Description: The full-length HSP90α (a.a. 1-732) and its 3 truncated fragments including the N-terminal plus Linker domains (a.a. 1-272), N terminus through Middle domain (a.a. 1-629), and C-terminal domain (a.a. 630-732) were cloned, expressed, and purified. Briefly, each cDNA sequence with a 8×His-tag was amplified by PCR from the human ORF Clone (NM_005348) with the primers containing Xho I and BamH I sites. The PCR products were purified, digested with restriction enzymes, and then inserted into pET-23a plasmid (Sigma-Aldrich). The recombinant plasmids were then transformed into Escherichia coli ClearColi® competent cells (Lucigen Co., Middleton, WI, USA), and expressions of the recombinant constructs were stimulated by the addition of isopropyl-D-thiogalacto-pyranoside. The expressed histidine-tagged full-length and truncated HSP90α were further purified by using the Ni—NTA column (Qiagen, Germantown, MD, USA) according to the manufacturer's instructions. The purified proteins were finally dialyzed against the storage buffer consisting of 25 mM Tris-HCl (pH, 7.0), 50 mM NaCl, 0.1% Triton X-100, 50% glycerol, 1 mM EDTA, and 1 mM DTT, and protein concentrations were determined by the Bradford protein assay (Bio-Rad Laboratories, Hercules, USA).
At first, the domain scanning strategy was used to roughly delineate the HSP90α region responsible for the binding with our prepared antibodies. The above-mentioned full-length HSP90α and its 3 truncated fragments were employed to coat 96-well ELISA plates for assaying the binding activities of the tested mouse monoclonal antibodies. […] 1-272 region of HSP90α. Therefore, in peptide scanning strategy, a 132 peptide library was synthesized by Mimotopes Pty. Ltd. (Melbourne, Victoria, Australia), consisting of a series of 10-a.a. peptides offset by 2 a.a. to span the sequence of the a.a. 21-272 region of HSP90α. This series of peptides were used to coat 96-well ELISA plates for assaying the binding activities of the tested antibodies. […] These peptides were subjected to ELISA as described above.

Molecule | epitope sites of HSP90α (peptide scanning) | a.a. residues critical for binding (alanine scanning)
Clone-2-chimera: recombinant IgG1 antibody: Clone-2 VH and VL with human IgG constant domains (antibody, V domains shown) VH: EVQVVESGGGLVQPKGSLKLSCAASGFTFKTYAMNWVRQAPGKGLEWVARIRSKSRNYATYYADSVKDRFTISRDDSQFMFYLQMNNLKTEDTAMYYCVVGGSGFDYWGQGTTLTVSS VL: DVLMTQTPLSLPVSLGDQASISCRSSQSIVHSNGNTYLEWYLQKPGQSPKLLIYKVSNRFSGVPDRFSGSGSGTDFTLSISRVEAGDLGVYYCFQGSHVPWTFGGGTKLEIK | 235[…]244 and 251[…]260 | decreased drastically when E237, E239, K241, E253, and K255 were replaced with alanine
HH01: humanized anti-HSP90α IgG1 antibody, mutant of Clone-2-chimera; VH SEQ ID NO: 12, VL SEQ ID NO: 17 (antibody, V domains shown, Heavy chain variable region; Light chain variable region) VH: EVQLVESGGGLVQPGGSLRLSCAASGFTFKTYAMNWVRQAPGQGLEWVARIRSKSRNYATYYADSVKDRFTISRDDSKNQFYLQMNNLRTEDTAVYYCVVGGSGFDYWGQGTTLTVSS VL: DVVMTQTPLSLPVSLGDQASISCRSSQSIVHSNGNTYLEWYLQKPGQSPQLLIYKVSNRFSGVPDRFSGSGSGTDFTLTISSVEAEDLGVYYCFQGSHVPWTFGGGTKLEIK | these two sites could also serve as the binding epitopes | one more D240 was also responsible for the binding
